{"sequences": {"note": "Chains of the proteins cited; added tags and fusions are not shown.", "UniProt Q8RY59": "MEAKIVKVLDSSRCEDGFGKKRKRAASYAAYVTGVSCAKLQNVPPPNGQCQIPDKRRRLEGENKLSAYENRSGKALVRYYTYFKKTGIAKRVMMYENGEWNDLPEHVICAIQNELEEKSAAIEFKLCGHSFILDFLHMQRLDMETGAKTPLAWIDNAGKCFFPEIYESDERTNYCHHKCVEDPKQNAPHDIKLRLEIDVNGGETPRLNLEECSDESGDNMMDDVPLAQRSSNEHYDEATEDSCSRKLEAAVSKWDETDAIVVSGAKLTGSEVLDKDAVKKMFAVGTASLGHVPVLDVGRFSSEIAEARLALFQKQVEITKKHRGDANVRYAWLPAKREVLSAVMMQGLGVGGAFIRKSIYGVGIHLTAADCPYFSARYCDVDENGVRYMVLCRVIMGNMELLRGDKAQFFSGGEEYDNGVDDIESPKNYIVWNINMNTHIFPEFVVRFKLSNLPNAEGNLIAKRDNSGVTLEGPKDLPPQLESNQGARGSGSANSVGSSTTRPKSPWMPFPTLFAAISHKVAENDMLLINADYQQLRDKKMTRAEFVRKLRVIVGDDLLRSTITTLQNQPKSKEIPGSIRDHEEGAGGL"}, "source": "paper PMC10298584", "molecular_target": "RADICAL-INDUCED CELL DEATH 1 (RCD1), full-length, in pGBKT7 (Arabidopsis thaliana) (UniProt Q8RY59)", "test": "two-hybrid; RCD1 in pGBKT7, ANAC017 in pGADT7, yeast strain Y2HGold; growth on SD-Leu-Trp-His or SD-Ade-Leu-Trp-His", "note": "No constants are given. Whether binding was seen depends on the method and setting. Some entries that bind do so weakly or less than the wild type.", "data": [{"binder": "Arabidopsis NAC domain-containing protein 17 (ANAC017), full-length, in pGADT7 (protein, UniProt Q9XIC5 1-557) MADSSPDSCFKGGKFSAPGFRFHPTDEELVMYYLKRKICRKRLRVNVIGVVDVYKMDPEELPGQSMLKTGDRQWFYFTPRSRKYPNAARSNRGTENGYWKATGKDRVIEYNSRSVGLKKTLVFYRGRAPSGERTDWVMHEYTMDEDELGRCKNPQEYYALYKLFKKSGAGPKNGEQYGAPFQEEEWVDDDNEDVNAIAVAVPEQPVVRYEDARRVDERRLFNPVILQLEDIDELLNGIPNAPGVPQRCIPQVNSEEELQSTLVNNSAREFLPNGQQYNRPSSFDSLETAEVTSAPLVFEKEDFIEMDDLLLIPEFGASSTEKAAQFSNHGEFDDFNEFDQLFHDVSMSLDMEPIDQGTSANLSSLSDSANYTSDQKQQLLYQQFQDQTPENQLNNIMDPSTTLNQITSDIWFEDDQAILFDQQQSFSGAFASPSSGVMPDSTNPTMSVNAQGHEIQNGGGTTSQFSSALWALMDSIPSTPASACEGPLNRTFVRMSSFSRMRFNGKANGTPVSTTIAKKGIRNRGFLLLSIVGALCAIFWVLVATVRVSGRSLLLKD", "values": [{"measurement": "binding", "value": "binds"}]}]}
